Experimental data published in PMC11171801.
These are yes or no findings as the source states them, for the method shown. Binding seen in cells or lysates may run through a third protein. These calls come from enrichment with a bait or labelling near it, and not all partners need be listed.

The chains behind the UniProt entries cited, without tags or fusion partners. Where a name states a change or a piece, a line headed by the entry shows the natural chain unless it says otherwise. Residues count along the entry.
UniProt Q15836: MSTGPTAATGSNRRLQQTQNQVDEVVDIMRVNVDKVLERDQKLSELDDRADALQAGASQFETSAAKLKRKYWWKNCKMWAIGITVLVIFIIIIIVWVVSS
UniProt P05556: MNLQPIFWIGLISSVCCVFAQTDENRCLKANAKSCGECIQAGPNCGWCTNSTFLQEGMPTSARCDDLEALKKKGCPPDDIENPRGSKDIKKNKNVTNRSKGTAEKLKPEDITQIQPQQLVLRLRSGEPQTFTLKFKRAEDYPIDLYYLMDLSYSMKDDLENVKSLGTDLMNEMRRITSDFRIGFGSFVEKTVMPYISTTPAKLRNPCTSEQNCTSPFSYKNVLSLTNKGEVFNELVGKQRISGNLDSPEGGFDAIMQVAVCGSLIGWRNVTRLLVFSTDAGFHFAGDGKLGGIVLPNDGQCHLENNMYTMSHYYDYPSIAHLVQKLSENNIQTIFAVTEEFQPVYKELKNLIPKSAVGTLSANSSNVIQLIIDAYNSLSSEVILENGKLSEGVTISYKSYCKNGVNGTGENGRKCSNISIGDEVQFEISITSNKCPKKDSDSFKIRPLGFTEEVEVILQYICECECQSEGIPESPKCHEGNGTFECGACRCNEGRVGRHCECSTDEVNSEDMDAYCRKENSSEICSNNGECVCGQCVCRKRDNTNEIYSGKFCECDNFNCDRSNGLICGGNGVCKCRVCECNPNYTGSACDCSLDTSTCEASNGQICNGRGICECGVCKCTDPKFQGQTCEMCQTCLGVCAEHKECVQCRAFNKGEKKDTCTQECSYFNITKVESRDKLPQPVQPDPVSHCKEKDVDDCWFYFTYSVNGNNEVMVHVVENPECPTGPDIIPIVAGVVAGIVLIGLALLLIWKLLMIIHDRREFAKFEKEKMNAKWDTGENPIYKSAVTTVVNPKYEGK
UniProt O00161: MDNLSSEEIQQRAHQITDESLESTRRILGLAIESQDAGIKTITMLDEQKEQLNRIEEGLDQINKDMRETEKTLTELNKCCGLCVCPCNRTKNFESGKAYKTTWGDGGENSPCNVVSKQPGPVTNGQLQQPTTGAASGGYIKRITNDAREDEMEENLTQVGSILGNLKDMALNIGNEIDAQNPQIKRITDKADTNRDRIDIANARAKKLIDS
UniProt Q9UQB8: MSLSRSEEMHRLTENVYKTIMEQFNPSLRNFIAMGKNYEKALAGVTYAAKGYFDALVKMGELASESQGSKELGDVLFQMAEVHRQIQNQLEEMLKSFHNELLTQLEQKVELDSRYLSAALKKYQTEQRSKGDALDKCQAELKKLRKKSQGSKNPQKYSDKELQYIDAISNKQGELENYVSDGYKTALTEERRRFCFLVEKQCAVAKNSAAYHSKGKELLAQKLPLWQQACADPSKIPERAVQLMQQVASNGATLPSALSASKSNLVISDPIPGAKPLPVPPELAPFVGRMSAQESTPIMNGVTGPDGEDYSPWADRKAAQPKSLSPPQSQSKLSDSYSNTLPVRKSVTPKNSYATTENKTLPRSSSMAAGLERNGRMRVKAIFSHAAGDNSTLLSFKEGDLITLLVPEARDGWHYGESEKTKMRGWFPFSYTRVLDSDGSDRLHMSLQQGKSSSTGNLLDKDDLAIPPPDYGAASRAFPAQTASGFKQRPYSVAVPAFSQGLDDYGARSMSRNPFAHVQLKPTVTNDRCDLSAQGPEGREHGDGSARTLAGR
UniProt Q96AC1: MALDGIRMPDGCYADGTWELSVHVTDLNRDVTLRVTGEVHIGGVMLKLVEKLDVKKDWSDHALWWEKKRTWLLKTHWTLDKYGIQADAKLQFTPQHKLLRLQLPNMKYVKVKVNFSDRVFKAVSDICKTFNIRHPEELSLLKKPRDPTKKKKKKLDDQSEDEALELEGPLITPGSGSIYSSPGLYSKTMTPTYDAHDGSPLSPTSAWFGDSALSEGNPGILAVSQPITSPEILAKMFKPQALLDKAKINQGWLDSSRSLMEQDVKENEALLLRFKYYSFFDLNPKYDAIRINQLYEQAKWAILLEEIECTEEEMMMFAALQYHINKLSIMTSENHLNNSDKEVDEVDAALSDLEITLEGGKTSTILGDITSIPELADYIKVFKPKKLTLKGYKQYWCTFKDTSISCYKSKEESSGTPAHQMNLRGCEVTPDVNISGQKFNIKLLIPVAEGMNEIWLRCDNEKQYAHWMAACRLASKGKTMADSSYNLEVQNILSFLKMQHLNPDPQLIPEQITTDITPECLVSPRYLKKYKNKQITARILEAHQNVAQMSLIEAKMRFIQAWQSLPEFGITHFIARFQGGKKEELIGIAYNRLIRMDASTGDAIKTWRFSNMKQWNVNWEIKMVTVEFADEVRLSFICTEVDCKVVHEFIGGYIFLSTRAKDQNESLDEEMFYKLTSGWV
UniProt Q9Y5X1: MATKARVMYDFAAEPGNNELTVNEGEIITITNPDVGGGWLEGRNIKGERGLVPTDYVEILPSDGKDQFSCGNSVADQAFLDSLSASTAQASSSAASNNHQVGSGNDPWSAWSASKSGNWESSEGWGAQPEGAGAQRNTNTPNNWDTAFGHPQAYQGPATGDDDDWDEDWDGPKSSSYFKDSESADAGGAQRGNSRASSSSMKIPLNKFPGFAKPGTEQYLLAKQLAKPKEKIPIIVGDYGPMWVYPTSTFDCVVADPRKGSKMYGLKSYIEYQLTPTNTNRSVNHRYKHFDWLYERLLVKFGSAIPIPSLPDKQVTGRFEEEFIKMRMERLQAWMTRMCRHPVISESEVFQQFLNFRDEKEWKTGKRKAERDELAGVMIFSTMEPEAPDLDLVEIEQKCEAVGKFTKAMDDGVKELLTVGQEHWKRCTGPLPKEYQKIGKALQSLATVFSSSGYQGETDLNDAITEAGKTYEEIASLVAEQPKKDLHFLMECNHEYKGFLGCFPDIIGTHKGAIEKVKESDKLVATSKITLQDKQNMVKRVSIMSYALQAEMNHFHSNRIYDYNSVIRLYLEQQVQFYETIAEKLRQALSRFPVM
UniProt Q92692, residues 32-538: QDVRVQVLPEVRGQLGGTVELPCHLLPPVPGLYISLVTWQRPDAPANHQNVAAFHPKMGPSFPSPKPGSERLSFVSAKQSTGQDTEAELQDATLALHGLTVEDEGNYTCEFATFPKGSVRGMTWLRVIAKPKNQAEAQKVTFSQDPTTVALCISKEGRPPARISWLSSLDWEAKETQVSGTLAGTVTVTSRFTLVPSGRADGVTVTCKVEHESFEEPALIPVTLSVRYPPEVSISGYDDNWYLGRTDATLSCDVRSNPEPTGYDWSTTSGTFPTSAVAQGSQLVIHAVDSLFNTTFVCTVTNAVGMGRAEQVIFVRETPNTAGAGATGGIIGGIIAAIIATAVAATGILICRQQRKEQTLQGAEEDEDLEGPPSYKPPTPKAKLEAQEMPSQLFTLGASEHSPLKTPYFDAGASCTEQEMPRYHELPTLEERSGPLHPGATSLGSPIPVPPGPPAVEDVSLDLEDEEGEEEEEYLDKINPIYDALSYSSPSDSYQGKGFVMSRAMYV
UniProt Q14247: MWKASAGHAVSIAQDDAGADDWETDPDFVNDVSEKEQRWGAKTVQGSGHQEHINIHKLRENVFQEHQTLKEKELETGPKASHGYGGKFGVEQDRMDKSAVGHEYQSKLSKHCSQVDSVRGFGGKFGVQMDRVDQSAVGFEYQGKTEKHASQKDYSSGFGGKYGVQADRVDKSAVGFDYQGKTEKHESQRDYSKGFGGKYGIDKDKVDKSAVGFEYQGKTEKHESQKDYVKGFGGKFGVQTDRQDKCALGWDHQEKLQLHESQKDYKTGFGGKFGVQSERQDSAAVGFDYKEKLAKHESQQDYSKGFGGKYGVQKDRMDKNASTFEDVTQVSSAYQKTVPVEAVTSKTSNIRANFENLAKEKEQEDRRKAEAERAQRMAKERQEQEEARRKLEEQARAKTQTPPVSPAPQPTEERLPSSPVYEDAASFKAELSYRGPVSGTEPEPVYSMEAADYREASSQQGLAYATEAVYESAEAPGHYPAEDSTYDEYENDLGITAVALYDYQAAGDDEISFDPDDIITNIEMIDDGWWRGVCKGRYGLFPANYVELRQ
UniProt P63027: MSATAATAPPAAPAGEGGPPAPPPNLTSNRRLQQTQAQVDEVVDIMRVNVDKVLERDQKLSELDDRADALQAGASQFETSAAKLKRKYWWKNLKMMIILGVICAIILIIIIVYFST
UniProt Q9UJU6: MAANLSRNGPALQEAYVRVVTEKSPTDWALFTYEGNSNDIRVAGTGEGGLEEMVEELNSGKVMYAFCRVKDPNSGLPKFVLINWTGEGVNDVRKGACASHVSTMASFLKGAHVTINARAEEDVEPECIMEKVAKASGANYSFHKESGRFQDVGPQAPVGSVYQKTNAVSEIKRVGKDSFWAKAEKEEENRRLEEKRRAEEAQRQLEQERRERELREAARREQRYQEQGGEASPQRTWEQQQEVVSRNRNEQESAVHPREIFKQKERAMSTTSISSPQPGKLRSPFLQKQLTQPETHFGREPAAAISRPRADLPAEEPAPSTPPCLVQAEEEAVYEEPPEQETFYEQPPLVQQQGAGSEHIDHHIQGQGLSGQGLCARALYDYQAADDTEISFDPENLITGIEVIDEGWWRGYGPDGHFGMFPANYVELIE
UniProt Q14008: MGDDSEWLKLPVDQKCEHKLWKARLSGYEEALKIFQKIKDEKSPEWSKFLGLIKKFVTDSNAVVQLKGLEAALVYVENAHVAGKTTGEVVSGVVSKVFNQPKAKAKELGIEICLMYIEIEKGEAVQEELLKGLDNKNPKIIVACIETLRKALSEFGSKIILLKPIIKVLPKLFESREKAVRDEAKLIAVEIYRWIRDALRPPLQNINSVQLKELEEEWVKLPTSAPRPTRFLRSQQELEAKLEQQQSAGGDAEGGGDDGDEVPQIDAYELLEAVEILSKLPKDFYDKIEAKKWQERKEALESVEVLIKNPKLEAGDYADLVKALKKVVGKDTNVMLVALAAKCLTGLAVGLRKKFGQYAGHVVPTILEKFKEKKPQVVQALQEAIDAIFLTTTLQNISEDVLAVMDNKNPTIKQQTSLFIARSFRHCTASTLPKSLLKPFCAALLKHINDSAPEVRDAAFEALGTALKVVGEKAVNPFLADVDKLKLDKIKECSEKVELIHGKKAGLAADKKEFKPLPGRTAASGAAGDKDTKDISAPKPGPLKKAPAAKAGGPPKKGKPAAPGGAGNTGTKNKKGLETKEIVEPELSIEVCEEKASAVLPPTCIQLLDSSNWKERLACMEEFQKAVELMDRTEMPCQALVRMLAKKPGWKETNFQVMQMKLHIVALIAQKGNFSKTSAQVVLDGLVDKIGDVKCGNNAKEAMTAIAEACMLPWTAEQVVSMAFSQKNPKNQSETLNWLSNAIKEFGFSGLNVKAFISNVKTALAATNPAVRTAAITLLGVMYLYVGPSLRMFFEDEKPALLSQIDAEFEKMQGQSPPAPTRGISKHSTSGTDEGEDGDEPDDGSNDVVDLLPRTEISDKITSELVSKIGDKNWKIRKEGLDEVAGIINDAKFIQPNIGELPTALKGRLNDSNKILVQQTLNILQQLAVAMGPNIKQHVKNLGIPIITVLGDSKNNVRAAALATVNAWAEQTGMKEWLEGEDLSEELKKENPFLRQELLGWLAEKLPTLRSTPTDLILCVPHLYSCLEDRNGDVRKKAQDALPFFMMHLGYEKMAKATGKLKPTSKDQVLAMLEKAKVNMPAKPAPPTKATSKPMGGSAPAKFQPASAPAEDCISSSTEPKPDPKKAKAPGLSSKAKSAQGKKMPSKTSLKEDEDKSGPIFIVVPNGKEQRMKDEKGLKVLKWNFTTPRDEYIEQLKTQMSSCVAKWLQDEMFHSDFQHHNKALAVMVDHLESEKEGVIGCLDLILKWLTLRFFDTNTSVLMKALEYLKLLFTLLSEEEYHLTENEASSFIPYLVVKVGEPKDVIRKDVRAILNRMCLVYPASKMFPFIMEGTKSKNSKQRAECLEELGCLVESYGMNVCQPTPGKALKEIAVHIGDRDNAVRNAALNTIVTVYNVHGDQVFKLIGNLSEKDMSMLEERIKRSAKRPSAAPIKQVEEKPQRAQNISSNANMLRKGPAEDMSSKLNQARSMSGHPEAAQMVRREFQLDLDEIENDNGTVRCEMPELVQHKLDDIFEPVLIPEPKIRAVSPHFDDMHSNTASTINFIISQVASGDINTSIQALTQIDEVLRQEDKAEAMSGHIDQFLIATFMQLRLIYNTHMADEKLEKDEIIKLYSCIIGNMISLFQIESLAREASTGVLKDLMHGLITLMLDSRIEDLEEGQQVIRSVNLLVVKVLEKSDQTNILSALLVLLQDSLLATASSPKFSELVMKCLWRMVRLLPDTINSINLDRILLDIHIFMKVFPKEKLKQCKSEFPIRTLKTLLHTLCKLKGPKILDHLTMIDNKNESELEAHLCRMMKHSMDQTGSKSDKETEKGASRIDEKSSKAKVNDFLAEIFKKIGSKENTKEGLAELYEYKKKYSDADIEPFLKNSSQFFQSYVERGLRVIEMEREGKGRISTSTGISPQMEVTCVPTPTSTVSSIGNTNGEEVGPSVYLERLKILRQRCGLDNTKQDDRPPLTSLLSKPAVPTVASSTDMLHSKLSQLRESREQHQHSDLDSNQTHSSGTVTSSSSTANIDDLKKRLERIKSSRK

Target: FMNL2-birA* fusion protein (human) (UniProt Q96PY5)
Assay: proximity labelling; BioID screen with SILAC: FMNL2-birA* (Heavy) against FMNL2-mCherry control (Light), transiently expressed in HEK293T/17; 50 μM biotin for 16 h; low-salt RIPA lysate; streptavidin-agarose capture; in-gel trypsin digest and LC-MS/MS; hits with SILAC ratios twofold above the median, filtered for known contaminants

binding | Molecule
binds | CTNNB1 (from UniProt P35222 1-781)
binds | ARPIN (from UniProt Q7Z6K5 1-226)
binds | PVRL3 (Nectin-3) (from UniProt Q9NQS3 58-549)
binds | VAMP3 (from UniProt Q15836 1-100)
binds | β1-integrin (from UniProt P05556 21-798)
binds | PLS3 (protein, UniProt P13797 1-630) MDEMATTQISKDELDELKEAFAKVDLNSNGFICDYELHELFKEANMPLPGYKVREIIQKLMLDGDRNKDGKISFDEFVYIFQEVKSSDIAKTFRKAINRKEGICALGGTSELSSEGTQHSYSEEEKYAFVNWINKALENDPDCRHVIPMNPNTDDLFKAVGDGIVLCKMINLSVPDTIDERAINKKKLTPFIIQENLNLALNSASAIGCHVVNIGAEDLRAGKPHLVLGLLWQIIKIGLFADIELSRNEALAALLRDGETLEELMKLSPEELLLRWANFHLENSGWQKINNFSADIKDSKAYFHLLNQIAPKGQKEGEPRIDINMSGFNETDDLKRAESMLQQADKLGCRQFVTPADVVSGNPKLNLAFVANLFNKYPALTKPENQDIDWTLLEGETREERTFRNWMNSLGVNPHVNHLYADLQDALVILQLYERIKVPVDWSKVNKPPYPKLGANMKKLENCNYAVELGKHPAKFSLVGIGGQDLNDGNQTLTLALVWQLMRRYTLNVLEDLGDGQKANDDIIVNWVNRTLSEAGKSTSIQSFKDKTISSSLAVVDLIDAIQPGCINYDLVKSGNLTEDDKHNNAKYAVSMARRIGARVYALPEDLVEVKPKMVMTVFACLMGRGMKRV
binds | BAIAP2L1 (protein, UniProt Q9UHR4 1-511) MSRGPEEVNRLTESTYRNVMEQFNPGLRNLINLGKNYEKAVNAMILAGKAYYDGVAKIGEIATGSPVSTELGHVLIEISSTHKKLNESLDENFKKFHKEIIHELEKKIELDVKYMNATLKRYQTEHKNKLESLEKSQAELKKIRRKSQGSRNALKYEHKEIEYVETVTSRQSEIQKFIADGCKEALLEEKRRFCFLVDKHCGFANHIHYYHLQSAELLNSKLPRWQETCVDAIKVPEKIMNMIEEIKTPASTPVSGTPQASPMIERSNVVRKDYDTLSKCSPKMPPAPSGRAYTSPLIDMFNNPATAAPNSQRVNNSTGTSEDPSLQRSVSVATGLNMMKKQKVKTIFPHTAGSNKTLLSFAQGDVITLLIPEEKDGWLYGEHDVSKARGWFPSSYTKLLEENETEAVTVPTPSPTPVRSISTVNLSENSSVVIPPPDYLECLSMGAAADRRADSARTTSTFKAPASKPETAAPNDANGTAKPPFLSGENPFATVKLRPTVTNDRSAPIIR
binds | ESYT1 (protein, UniProt Q9BSJ8 1-1104) MERSPGEGPSPSPMDQPSAPSDPTDQPPAAHAKPDPGSGGQPAGPGAAGEALAVLTSFGRRLLVLIPVYLAGAVGLSVGFVLFGLALYLGWRRVRDEKERSLRAARQLLDDEEQLTAKTLYMSHRELPAWVSFPDVEKAEWLNKIVAQVWPFLGQYMEKLLAETVAPAVRGSNPHLQTFTFTRVELGEKPLRIIGVKVHPGQRKEQILLDLNISYVGDVQIDVEVKKYFCKAGVKGMQLHGVLRVILEPLIGDLPFVGAVSMFFIRRPTLDINWTGMTNLLDIPGLSSLSDTMIMDSIAAFLVLPNRLLVPLVPDLQDVAQLRSPLPRGIIRIHLLAARGLSSKDKYVKGLIEGKSDPYALVRLGTQTFCSRVIDEELNPQWGETYEVMVHEVPGQEIEVEVFDKDPDKDDFLGRMKLDVGKVLQASVLDDWFPLQGGQGQVHLRLEWLSLLSDAEKLEQVLQWNWGVSSRPDPPSAAILVVYLDRAQDLPLKKGNKEPNPMVQLSIQDVTQESKAVYSTNCPVWEEAFRFFLQDPQSQELDVQVKDDSRALTLGALTLPLARLLTAPELILDQWFQLSSSGPNSRLYMKLVMRILYLDSSEICFPTVPGCPGAWDVDSENPQRGSSVDAPPRPCHTTPDSQFGTEHVLRIHVLEAQDLIAKDRFLGGLVKGKSDPYVKLKLAGRSFRSHVVREDLNPRWNEVFEVIVTSVPGQELEVEVFDKDLDKDDFLGRCKVRLTTVLNSGFLDEWLTLEDVPSGRLHLRLERLTPRPTAAELEEVLQVNSLIQTQKSAELAAALLSIYMERAEDLPLRKGTKHLSPYATLTVGDSSHKTKTISQTSAPVWDESASFLIRKPHTESLELQVRGEGTGVLGSLSLPLSELLVADQLCLDRWFTLSSGQGQVLLRAQLGILVSQHSGVEAHSHSYSHSSSSLSEEPELSGGPPHITSSAPELRQRLTHVDSPLEAPAGPLGQVKLTLWYYSEERKLVSIVHGCRSLRQNGRDPPDPYVSLLLLPDKNRGTKRRTSQKKRTLSPEFNERFEWELPLDEAQRRKLDVSVKSNSSFMSRERELLGKVQLDLAETDLSQGVARWYDLMDNKDKGSS
binds | SEPTIN2 (protein, UniProt Q15019 1-361) MSKQQPTQFINPETPGYVGFANLPNQVHRKSVKKGFEFTLMVVGESGLGKSTLINSLFLTDLYPERVIPGAAEKIERTVQIEASTVEIEERGVKLRLTVVDTPGYGDAINCRDCFKTIISYIDEQFERYLHDESGLNRRHIIDNRVHCCFYFISPFGHGLKPLDVAFMKAIHNKVNIVPVIAKADTLTLKERERLKKRILDEIEEHNIKIYHLPDAESDEDEDFKEQTRLLKASIPFSVVGSNQLIEAKGKKVRGRLYPWGVVEVENPEHNDFLKLRTMLITHMQDLQEVTQDLHYENFRSERLKRGGRKVENEDMNKDQILLEKEAELRRMQEMIARMQAQMQMQMQGGDGDGGALGHHV

The next lines start with the molecule.

Molecule | binding
SNAP23 (from UniProt O00161 1-211) | binds
BAIAP2 (from UniProt Q9UQB8 1-552) | binds
CHMP5 (from UniProt Q9NZZ3 1-219) | binds
FERMT2 (from UniProt Q96AC1 1-680) | binds
CHMP2B (from UniProt Q9UQN3 1-213) | binds
SNX9 (from UniProt Q9Y5X1 1-595) | binds
SNX1 (from UniProt Q13596 1-522) | binds
ENAH (from UniProt Q8N8S7 1-591) | binds
PVRL2 (Nectin-2) (from UniProt Q92692 32-538) | binds
cortactin (from UniProt Q14247 1-550) | binds
VAMP2 (from UniProt P63027 1-116) | binds
DBNL (from UniProt Q9UJU6 1-430) | binds
CKAP5 (from UniProt Q14008 1-2032) | binds
SEPTIN9 (protein, UniProt Q9UHD8 1-586) MKKSYSGGTRTSSGRLRRLGDSSGPALKRSFEVEEVETPNSTPPRRVQTPLLRATVASSTQKFQDLGVKNSEPSARHVDSLSQRSPKASLRRVELSGPKAAEPVSRRTELSIDISSKQVENAGAIGPSRFGLKRAEVLGHKTPEPAPRRTEITIVKPQESAHRRMEPPASKVPEVPTAPATDAAPKRVEIQMPKPAEAPTAPSPAQTLENSEPAPVSQLQSRLEPKPQPPVAEATPRSQEATEAAPSCVGDMADTPRDAGLKQAPASRNEKAPVDFGYVGIDSILEQMRRKAMKQGFEFNIMVVGQSGLGKSTLINTLFKSKISRKSVQPTSEERIPKTIEIKSITHDIEEKGVRMKLTVIDTPGFGDHINNENCWQPIMKFINDQYEKYLQEEVNINRKKRIPDTRVHCCLYFIPATGHSLRPLDIEFMKRLSKVVNIVPVIAKADTLTLEERVHFKQRITADLLSNGIDVYPQKEFDEDSEDRLVNEKFREMIPFAVVGSDHEYQVNGKRILGRKTKWGTIEVENTTHCEFAYLRDLLIRTHMQNIKDITSSIHFEAYRVKRLNEGSSAMANGMEEKEPEAPEM | binds
CALD1 (protein, UniProt Q05682 1-793) MDDFERRRELRRQKREEMRLEAERIAYQRNDDDEEEAARERRRRARQERLRQKQEEESLGQVTDQVEVNAQNSVPDEEAKTTTTNTQVEGDDEAAFLERLARREERRQKRLQEALERQKEFDPTITDASLSLPSRRMQNDTAENETTEKEEKSESRQERYEIEETETVTKSYQKNDWRDAEENKKEDKEKEEEEEEKPKRGSIGENQVEVMVEEKTTESQEETVVMSLKNGQISSEEPKQEEEREQGSDEISHHEKMEEEDKERAEAERARLEAEERERIKAEQDKKIADERARIEAEEKAAAQERERREAEERERMREEEKRAAEERQRIKEEEKRAAEERQRIKEEEKRAAEERQRIKEEEKRAAEERQRARAEEEEKAKVEEQKRNKQLEEKKHAMQETKIKGEKVEQKIEGKWVNEKKAQEDKLQTAVLKKQGEEKGTKVQAKREKLQEDKPTFKKEEIKDEKIKKDKEPKEEVKSFMDRKKGFTEVKSQNGEFMTHKLKHTENTFSRPGGRASVDTKEAEGAPQVEAGKRLEELRRRRGETESEEFEKLKQKQQEAALELEELKKKREERRKVLEEEEQRRKQEEADRKLREEEEKRRLKEEIERRRAEAAEKRQKMPEDGLSDDKKPFKCFTPKGSSLKIEERAEFLNKSVQKSSGVKSTHQAAIVSKIDSRLEQYTSAIEGTKSAKPTKPAASDLPVPAEGVRNIKSMWEKGNVFSSPTAAGTPNKETAGLKVGVSSRINEWLTKTPDGNKSPAPKPSDLRPGDVSSKRNLWEKQSVDKVTSPTKV | binds
MARCKSL1 (protein, UniProt P49006 1-195) MGSQSSKAPRGDVTAEEAAGASPAKANGQENGHVKSNGDLSPKGEGESPPVNGTDEAAGATGDAIEPAPPSQGAEAKGEVPPKETPKKKKKFSFKKPFKLSGLSFKRNRKEGGGDSSASSPTEEEQEQGEIGACSDEGTAQEGKAAATPESQEPQAKGAEASAASEEEAGPQATEPSTPSGPESGPTPASAEQNE | binds
SEPTIN7 (protein, UniProt Q16181 1-437) MSVSARSAAAEERSVNSSTMVAQQKNLEGYVGFANLPNQVYRKSVKRGFEFTLMVVGESGLGKSTLINSLFLTDLYSPEYPGPSHRIKKTVQVEQSKVLIKEGGVQLLLTIVDTPGFGDAVDNSNCWQPVIDYIDSKFEDYLNAESRVNRRQMPDNRVQCCLYFIAPSGHGLKPLDIEFMKRLHEKVNIIPLIAKADTLTPEECQQFKKQIMKEIQEHKIKIYEFPETDDEEENKLVKKIKDRLPLAVVGSNTIIEVNGKRVRGRQYPWGVAEVENGEHCDFTILRNMLIRTHMQDLKDVTNNVHYENYRSRKLAAVTYNGVDNNKNKGQLTKSPLAQMEEERREHVAKMKKMEMEMEQVFEMKVKEKVQKLKDSEAELQRRHEQMKKNLEAQHKELEEKRRQFEDEKANWEAQQRILEQQNSSRTLEKNKKKGKIF | binds
